Reference: article PMC8834516
No constants are given. Whether binding was seen depends on the method and setting. Binding seen in cells or lysates may run through a third protein. A yes stands for co-enrichment or nearness to the bait. Other partners may have been found. Where a sequence is shown, tags or fusion partners need not be part of it.

T1: Transglutaminase-2 (mouse (endogenous in mouse brain)) (UniProt P21981)
T1 sequence: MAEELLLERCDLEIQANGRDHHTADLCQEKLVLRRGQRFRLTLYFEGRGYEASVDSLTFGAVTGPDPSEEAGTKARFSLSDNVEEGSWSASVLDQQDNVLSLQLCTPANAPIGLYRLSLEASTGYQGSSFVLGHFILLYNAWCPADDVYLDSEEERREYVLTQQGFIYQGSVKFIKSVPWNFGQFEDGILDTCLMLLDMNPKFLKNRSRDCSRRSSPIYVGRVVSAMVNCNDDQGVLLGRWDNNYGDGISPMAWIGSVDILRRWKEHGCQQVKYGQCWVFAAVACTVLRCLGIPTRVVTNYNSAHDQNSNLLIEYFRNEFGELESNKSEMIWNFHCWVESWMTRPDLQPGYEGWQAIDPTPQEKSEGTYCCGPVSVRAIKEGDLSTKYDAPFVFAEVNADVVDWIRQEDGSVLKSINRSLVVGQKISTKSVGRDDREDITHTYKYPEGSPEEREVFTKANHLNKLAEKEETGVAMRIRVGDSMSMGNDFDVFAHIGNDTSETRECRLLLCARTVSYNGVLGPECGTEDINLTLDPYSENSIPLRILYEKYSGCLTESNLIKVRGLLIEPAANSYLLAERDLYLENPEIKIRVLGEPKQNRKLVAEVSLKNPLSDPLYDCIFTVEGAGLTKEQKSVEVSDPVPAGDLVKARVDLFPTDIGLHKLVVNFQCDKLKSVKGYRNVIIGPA


These binders were tested against T1, Transglutaminase-2 (mouse (endogenous in mouse brain)) (assay: affinity purification with mass spectrometry; TG2 immunoprecipitated from total brain homogenates of 18-month-old WT and APP23 mice with anti-TG2 antibody IA12 crosslinked to protein A/G magnetic beads, 22 h at 4 °C; IP lysis buffer 25 mM Tris pH 7.4, 150 mM NaCl, 1 mM EDTA, 1% NP40, 5% glycerol; on-bead trypsin digest, SWATH MS; TG2−/− cohorts as background, z-test p ≤ 0.05, n = 5 per cohort).

Binder	binding
Phosphatidylinositol-binding clathrin assembly protein (protein, UniProt Q7M6Y3 1-660) MSGQSLTDRITAAQHSVTGSAVSKTVCKATTHEIMGPKKKHLDYLIQCTNEMNVNIPQLADSLFERTTNSSWVVVFKSLITTHHLMVYGNERFIQYLASRNTLFNLSNFLDKSGLQGYDMSTFIRRYSRYLNEKAVSYRQVAFDFTKVKRGADGVMRTMNTEKLLKTVPIIQNQMDALLDFNVNSNELTNGVINAAFMLLFKDAIRLFAAYNEGIINLLEKYFDMKKNQCKEGLDIYKKFLTRMTRISEFLKVAEQVGIDRGDIPDLSQAPSSLLDALEQHLASLEGKKIKDSTAASRATTLSNAVSSLASTGLSLTKVDEREKQAALEEEQARLKALKEQRLKELAKKPHTSLTTAASPVSTSAGGIMTAPAIDIFSTPSSSNSTSKLPNDLLDLQQPTFHPSVHAMSAAPQGASTWGDPFSATLDAVEDAIPSLNPFLTKSSGDVHLPIASDVSTFTTRTPTHEMFVGFSPSPVAQPHSSAGLNVDFESVFGNKSTNVAVDSGGFDELGGLLKPTVASQNQSLPVAKLPPNKLVSDDLDSSLANLVGNLGIGNGTTKNDVSWSQPGEKKLTGGSNWQPKVAPTTAWSAATMNGMHFPQYAPPVMAYPATTPTGMIGYGIPPQMGSVPVMTQPTLIYSQPVMRPPNPFGPVSGAQIQFM	binds
Epoxide hydrolase 1 (protein, UniProt Q9D379 1-455) MWLELILASVLGFVIYWFVSRDKEETLPLEDGWWGPGSKPSAKEDESIRPFKVETSDEEIKDLHQRIDRFRASPPLEGSRFHYGFNSSYLKKVVSFWRNEFDWRKQVEILNQYPHFKTKIEGLDIHFIHVKPPQLPSGRTPKPLLMVHGWPGSFYEFYKIIPLLTDPKTHGLSDEHVFEVICPSIPGYGFSEASSKKGLNSVATARIFYKLMSRLGFQKFYIQGGDWGSLICTNIAQMVPNHVKGLHLNMSFISRNIYSLTPLLGQRFGRFLGYTEKDLELLYPFKEKVFYNIMRESGYLHIQATKPDTVGCALNDSPVGLAAYILEKFSTWTKSEYRELEDGGLERKFSLEDLLTNIMIYWTTGTIVSSQRFYKENLGQGVMVHRHEGMKVFVPTGYSAFPSEILHAPEKWVKVKYPKLISYSYMERGGHFAAFEEPKLLAQDIRKFVSLAELQ	binds
Lethal(2) giant larvae protein homolog 1 (protein, UniProt Q80Y17 1-1036) MMKFRFRRQGADPQREKLKQELFAFHKTVEHGFPNQPSALAFDPELRIMAIGTRSGAVKIYGAPGVEFTGLHRDAATVTQMHFLPGQGRLLTLLDDSSLHLWEIIHHNGCAHLEEGLSFHPPSRPSFDNASFPASLTRVTVVLLVAGNTAALGTESGSIFFLDVATLALLEGQTLSPDVVLRSVPDDYRCGKALGPVESLQGHLQDPSKILIGYSRGLLVIWSQATQSVDNVFLGNQQLESLCWGRDGSSIISSHSDGSYAIWSTDTGSPPTLQPTVVTTPYGPFPCKAINKILWRSCESGDHFIIFSGGMPRASYGDRHCVSVLRAETLVTLDFTSRVIDFFTVHSTQPEDECDNPQALAVLLEEELVVLDLQTPGWPAVPAPYLAPLHSSAITCSAHVANVPSKLWARIVSAGEQQSPQPASSALSWPITGGRNLAQEPSQRGLLLTGHEDGTVRFWDASGVALRPLYKLSTAGLFQTDCEHADSLAQAVEDDWPPFRKVGCFDPYSDDPRLGIQKVALCKYTAQMVVAGTAGQVLVLELSEVPAEHAVSVANVDLLQDREGFTWKGHERLNPHTGLLPWPAGFQPRMLIQCLPPAAVTAVTLHAEWSLVAFGTSHGFGLFDYQRKSPVLARCTLHPNDSLAMEGPLSRVKSLKKSLRQSFRRIRKSRVSGKKRTPAASSKLQEANAQLAEQTCPHDLEMTPVQRRIEPRSADDSLSGVVRCLYFADTFLRDATHHGPTMWAGTNSGSVFAYALEVPAATAGGEKRPEQAVEAVLGKEVQLMHRAPVVAIAVLDGRGRPLPEPYEASRDLAQAPDMQGGHAVLIASEEQFKVFTLPKVSAKTKFKLTAHEGCRVRKVALATFASVMSEDYAETCLACLTNLGDVHVFSVPGLRPQVHYSCIRKEDISGIASCVFTRHGQGFYLISPSEFERFSLSARNITEPLCSLDISWPQNATQPRLQESPKLSQANGTRDIILAPESCEGSPSSAHSKRADTMEPPEAALSPVSIDSAASGDTMLDTTGDVTVEYVKDFLG	binds
Mitochondrial peptide methionine sulfoxide reductase (protein, UniProt Q9D6Y7 21-233) MGDSASKVISAEEALPGRTEPIPVTAKHHVSGNRTVEPFPEGTQMAVFGMGCFWGAERKFWVLKGVYSTQVGFAGGHTRNPTYKEVCSEKTGHAEVVRVVYRPEHISFEELLKVFWENHDPTQGMRQGNDFGTQYRSAVYPTSAVQMEAALRSKEEYQKVLSKHNFGPITTDIREGQVFYYAEDYHQQYLSKNPDGYCGLGGTGVSCPMAIKK	binds
Amyloid-beta A4 precursor protein-binding family B member 1 (protein, UniProt Q9QXJ1 1-710) MSVPSSLSQSAINANSHGGPALSFPLPLHAAHNQLLNAKLQATAVVPKDLRSAMGEGSVPEPGPANAKWLKEGQNQLRRAATAHRDQNRNVTLTLAEEASQEAETAPLGPKGLMHLYSELELSAHNAANRGLHGSALIINTQEQGPDEGEEKAAGEAEEDDEDEEEEEEEEDLSSPPGLPEPLENVEVPSGPQALTDGPREHSKSASLLFGMRNSAASDEDSSWATLSQGSPSYGSPEDTDSFWNPNAFETDSDLPAGWMRVQDTSGTYYWHIPTGTTQWEPPGRASPSQGSSPQEESQLTWTGFAHQEGFEEGEFWKDEPSEEAPMELGLKDPEEATLSFPAQSLSPEPVPQEEEKLSQRNANPGIKCFAVRSLGWVEMTEEELAPGRSSVAVNNCIRQLSYHKNNLHDPMAGGWGEGKDLLLQLEDETLKLVEPQNQTLLHAQPIVSIRVWGVGRDSGSNRDFAYVARDKLTQMLKCHVFRCEAPAKNIATSLHEICSKIMSERRNARCLVNGLSLDHSKLVDVPFQVEFPAPKNELVQKFQVYYLGNVPVAKPVGVDVINGALESVLSSSSREQWTPSHVSVAPATLTILHQQTEAVLGECRVRFLSFLAVGRDVHTFAFIMAAGPASFCCHMFWCEPNAASLSEAVQAACMLRYQKCLDARSQTSTSCLPAPPAESVARRVGWTVRRGVQSLWGSLKPKRLGSQTP	binds
UDP-N-acetylglucosamine—peptide N-acetylglucosaminyltransferase 110 kDa subunit (protein, UniProt Q8CGY8 1-1046) MASSVGNVADSTEPTKRMLSFQGLAELAHREYQAGDFEAAERHCMQLWRQEPDNTGVLLLLSSIHFQCRRLDRSAHFSTLAIKQNPLLAEAYSNLGNVYKERGQLQEAIEHYRHALRLKPDFIDGYINLAAALVAAGDMEGAVQAYVSALQYNPDLYCVRSDLGNLLKALGRLEEAKACYLKAIETQPNFAVAWSNLGCVFNAQGEIWLAIHHFEKAVTLDPNFLDAYINLGNVLKEARIFDRAVAAYLRALSLSPNHAVVHGNLACVYYEQGLIDLAIDTYRRAIELQPHFPDAYCNLANALKEKGSVAEAEDCYNTALRLCPTHADSLNNLANIKREQGNIEEAVRLYRKALEVFPEFAAAHSNLASVLQQQGKLQEALMHYKEAIRISPTFADAYSNMGNTLKEMQDVQGALQCYTRAIQINPAFADAHSNLASIHKDSGNIPEAIASYRTALKLKPDFPDAYCNLAHCLQIVCDWTDYDERMKKLVSIVAEQLEKNRLPSVHPHHSMLYPLSHGFRKAIAERHGNLCLDKINVLHKPPYEHPKDLKLSDGRLRVGYVSSDFGNHPTSHLMQSIPGMHNPDKFEVFCYALSPDDGTNFRVKVMAEANHFIDLSQIPCNGKAADRIHQDGIHILVNMNGYTKGARNELFALRPAPIQAMWLGYPGTSGALFMDYIITDQETSPAEVAEQYSEKLAYMPHTFFIGDHANMFPHLKKKAVIDFKSNGHIYDNRIVLNGIDLKAFLDSLPDVKIVKMKCPDGGDNPDSSNTALNMPVIPMNTIAEAVIEMINRGQIQITINGFSISNGLATTQINNKAATGEEVPRTIIVTTRSQYGLPEDAIVYCNFNQLYKIDPSTLQMWANILKRVPNSVLWLLRFPAVGEPNIQQYAQNMGLPQNRIIFSPVAPKEEHVRRGQLADVCLDTPLCNGHTTGMDVLWAGTPMVTMPGETLASRVAASQLTCLGCLELIAKSRQEYEDIAVKLGTDLEYLKKIRGKVWKQRISSPLFNTKQYTMELERLYLQMWEHYAAGNKPDHMIKPVEVTESA	binds
Active breakpoint cluster region-related protein (protein, UniProt Q5SSL4 1-859) MEPLSHRGLPRLSWIDTLYSNFSYGAEDYDAEGHEEQKGPPEGSETMPYIDESPTMSPQLSARSQGGGDSVSPTPPEGLAPGVEAGKGLEMRKLVLSGFLASEEIYINQLEALLLPMKPLKATATTSQPVLTIQQIETIFYKIQDIYEIHKEFYDNLCPKVQQWDSQVTMGHLFQKLASQLGVYKAFVDNYKVALETAEKCSQSNNQFQKISEELKVKGPKDSKDSHTSVTMEALLYKPIDRVTRSTLVLHDLLKHTPVDHPDYPLLQDALRISQNFLSSINEDIDPRRTAVTTPKGETRQLVKDGFLVEMSESSRKLRHVFLFTDVLLCAKLKKTSAGKHQQYDCKWYIPLADLVFPSPEESEASPQVHPFPDHELEDMKTKISALKSEIQKEKANKGQSRAIERLKKKMFENEFLLLLNSPTIPFRIHNRNGKSYLFLLSSDYERSEWREAIQKLQKKDLQAFVLSSVELQVLTGSCFKLRTVHNIPVTSNKDDDESPGLYGFLHVIVHSAKGFKQSANLYCTLEVDSFGYFVSKAKTRVFRDTTEPKWDEEFEIELEGSQSLRILCYEKCYDKTKVNKDNNEIVDKIMGKGQIQLDPQTVESKNWHTDVIEMNGIKVEFSMKFTSRDMSLKRTPSKKQTGVFGVKISVVTKRERSKVPYIVRQCIEEVEKRGIEEVGIYRISGVATDIQALKAVFDANNKDILLMLSDMDINAIAGTLKLYFRELPEPLLTDRLYPAFMEGIALSDPAAKENCMMHLLRSLPDPNLITFLFLLEHLKRVAEKEPINKMSLHNLATVFGPTLLRPSEVESKAHLTSAADIWSHDVMAQVQVLLYYLQHPPISFAELKRNTLYFSTDV	binds
Ras-related protein Rab-21 (protein, UniProt P35282 1-222) MAAAGGGAAAAAGRAYSFKVVLLGEGCVGKTSLVLRYCENKFNDKHITTLQASFLTKKLNIGGKRVNLAIWDTAGQERFHALGPIYYRDSNGAILVYDVTDEDSFQKVKNWVKELRKMLGNEICLCIVGNKIDLEKERHVSIQEAESYAESVGAKHYHTSAKQNKGIEELFLDLCKRMIETAQVDERAKGNGSSQAGAARRGVQIIDDEPQAQSSGGCCSSG	binds
